These are yes or no findings as the source states them, for the method shown. Some entries that bind do so weakly or less than the wild type. Where a sequence is shown, tags or fusion partners need not be part of it.

This assay addresses p3Z-42 fusion of the Integrin binder av6-3. Description: self-assembly of fusion trimers; negative-stain TEM of E. coli pellet.

B1: p3Z-42 fusion of the Integrin binder av6-3 (designed binder, not shown: small tags and cut ends)
chain: MHNNRLQLSRLERVYQSEQAEKLLLAGVMLRDPARFDLRGSLTHGRDVEIDTNVIIEGNVSLGNRVKIGTGCVIKNSAIGDDCEISPYTVVEDAVLAAACTIGPFARLRPGAVLLEGAHVGNFVEMKKAVLGKGSKAGHLTYLGDAAIGDNVNIGAGTITCNYDGANKFTTIIGDDVFVGSDTQLVAPVSVGKGATIAAGTTVTRNVGANALAISRVPQTQKEGWRRPVKKKLE
B1: the binding entry is “binds”.

These data come from patent publication US20160369264A1 (HOWARD HUGHES MEDICAL INSTITUTE, published 2016).
